Results: article PMC1440875
No constants are given. Whether binding was seen depends on the method and setting. Some entries that bind do so weakly or less than the wild type.

Chains of the proteins cited; added tags and fusions are not shown. Residues count along the entry.
UniProt P01522, residues 46-73: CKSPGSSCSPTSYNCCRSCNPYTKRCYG

Molecular target: N-type calcium channels (rat (endogenous in brain)) (UniProt Q02294)
Assay: radioligand binding; only the binder purified

With “ω-conotoxin GVIA (from UniProt P01522 46-73) (peptide)” the binding was “binds”.
